Source: patent US5389687A, “Ring-substituted 2-amino-1,2,3,4-tetra-hydronaphthalenes” (Eli Lilly and Company, priority 1991, dated 1995)

System: conscious spontaneous hypertensive rats (SHR)
Experiment: Effect on heart rate after i.v. administration to conscious SHR
Format: in vivo
Details: i.v., 0.3, 1.0 and 3.0 mg/kg
Experimental: The compounds of this invention are also effective in reducing blood pressure. The blood pressure lowering effect of the compounds of this invention was determined in conscious spontaneous hypertensive rats (SHR; 325-425 g). The rats were anesthetized with halothane (2% in nitrous oxide and oxygen) and were implanted with femoral arterial and venous catheters. The tips of arterial and venous catheters-were positioned in the abdominal aorta below the renal arteries and lower abdominal vena cava, respectively. The catheters were routed subcutaneously to an exit point at the base of the skull and then through a small leather harness fastened around the forequarters of each animal. The animals were allowed a 3- to 4-day recovery period after surgery. On the day before an experiment, each rat was conditioned to the experimental surroundings for 6 hours. On the day of the experiment, the harness on the back of each animal was connected to a spring tether through which arterial and venous extension tubing was routed. The other end of the tubing was connected to a water tight swivel. This system permitted direct recording of blood pressure in conscious free moving animals. Mean arterial blood pressure was measured via a Statham strain gauge transducer (P23DB, Statham Instruments, Oxnard, Calif.) and recorded on a multichannel oscillograph (Beckman Model R611, Beckman Instruments, Palo Alto, Calif.). A minimum 30-minute equilibration period was observed prior to the experimental protocol during which time the animals preened and blood pressure was quite labile. Afterward, the animals appeared to sleep and pressure was stable. Following a control blood pressure measurement, rats were dosed with the compound or vehicle i.v., and pressure was monitored at various time intervals thereafter.
^1 Standard protocol recorded the blood pressure and heart rate
responses after 0.3, 1.0 and 3.0 mg/kg i.v. Dose response curves were
plotted using the % change in pressure from pretreatment control values a
15 and 30 minutes after treatment.
Corr = correlation coefficient for the linear relationship between the lo
dose(s) and % change (y) in pressure. Values of 1.0 = perfect correlation
Pos = Positive slope of dose response
HR Index = ED15 for Heart Rate divided by ED25 for Blood

Structure (SMILES) | Heart Rate Corr. (correlation coefficient) (15 min. after treatment) | Heart Rate Corr. (correlation coefficient) (30 min. after treatment)
CCCN(CCC)C1CCc2cccc(CO)c2C1 (stereo not shown) [Example 21, 2-Di-n-propylamino-8-hydroxymethyl-1,2,3,4-tetrahydronaphthalene] | 0.60 | 0.51
CN(C)C1CCc2cccc(Cl)c2C1 (stereo not shown) [Example 11, 2-Dimethylamino-8-chloro-1,2,3,4-tetrahydronaphthalene] | 0.98 | 0.88
CCCN(CCC)C1CCc2cccc(C(=O)OC)c2C1 (stereo not shown) [Example 7, 2-Di-n-propylamino-8-methoxycarbonyl-1,2,3,4-tetrahydronaphthalene] | 0.99 | 0.99
CCCN(CCC)C1CCc2cccc(Cl)c2C1 (stereo not shown) [Example 1, 2-Di-n-propylamino-8-chloro-1,2,3,4-tetrahydronaphthalene] | 0.90 | 0.97
CCN(CC)C1CCc2cccc(Cl)c2C1 (stereo not shown) [Example 2, 2-Diethylamino-8-chloro-1,2,3,4-tetrahydronaphthalene] | 0.30 | 0.92
CCCNC1CCc2cccc(Cl)c2C1 (stereo not shown) [Example 10, 2-n-Propylamino-8-chloro-1,2,3,4-tetrahydronaphthalene] | 0.97 | 0.97
CCCN(CCC)C1CCc2cccc(C(N)=O)c2C1 (stereo not shown) [Example 16, 2-Di-n-propylamino-8-carboxamido-1,2,3,4-tetrahydronaphthalene] | 0.99 | 0.91
CNC1CCc2cccc(Cl)c2C1 (stereo not shown) [Example 12, 2-Methylamino-8-chloro-1,2,3,4-tetrahydronaphthalene] | 0.29 | 0.81
